# “And” between values parts separate entries of the source, which are not always exact repeats. Identical values can stand only once. Counter-ions that a name gives are not always drawn. ± gives the standard deviation of the averaged measurements. The list shows a part of the results. Baselines shift from plate to plate; read single values as rough.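 Assay uses culture-activated primary human stellate myofibroblasts; lipid droplet recovery indicates inactivation. Measured: proportion of Hoechst-counted cells over a plate-specific Bodipy cutoff, duplicate wells, DMSO and nortriptyline as per-plate negative and positive controls. A hit scores, control-normalized, above the plate's top-tenth-percentile nortriptyline wells or ranks among its three best wells. Final well concentrations not reported.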
# Test system: primary human hepatic stellate cells (donor 1)
# Experiment: percent Bodipy-positive cells; higher = more lipid droplet accumulation
# Conditions: 48 h
# [1] = library stock concentration: 10 mM
# [2] = library stock concentration: 3.33 mM
# [3] = library stock concentration: 400 uM
# [4] = library stock concentration: 2 mM
# [5] = library stock concentration: 1 mM
# [6] = library stock concentration: 80 uM
# [7] = library stock concentration: 4.7 mM
structure (smiles),measurement,setting,value
CC(C)NCC(O)c1ccc2ccccc2c1 (configuration not stated) [Pronethalol HCl],percent Bodipy-positive cells,library stock concentration: 8.7 mM,32.1 ± 7.8%
CC(C)NCC(O)c1ccc2ccccc2c1 (configuration not stated) [Pronetalol hydrochloride],percent Bodipy-positive cells,[1],51.9 ± 11%
CC(C)NCC(O)c1ccc2ccccc2c1 (configuration not stated) [Pronethalol hydrochloride],percent Bodipy-positive cells,,39.6 ± 5.7%
same,percent Bodipy-positive cells,[1],27.5 ± 7.2%
CS(=O)(=O)CCNCc1ccc(-c2ccc3ncnc(Nc4ccc(OCc5cccc(F)c5)c(Cl)c4)c3c2)o1.Cc1ccc(S(=O)(=O)O)cc1.Cc1ccc(S(=O)(=O)O)cc1,percent Bodipy-positive cells,[1],98.641 ± 0.0064%
CC(C)(C)c1nc2c3cc[nH]c(=O)c3c3cc(F)ccc3c2[nH]1 [JAK Inhibitor I],percent Bodipy-positive cells,[2],10.6 ± 3%
CC(C)(C)c1nc2c3cc[nH]c(=O)c3c3cc(F)ccc3c2[nH]1 [Merck -5 (0.4 mM)],percent Bodipy-positive cells,[3],18.2 ± 6.8%
CC(C)(C)c1nc2c3cc[nH]c(=O)c3c3cc(F)ccc3c2[nH]1 [Merck -5 (2 mM)],percent Bodipy-positive cells,[4],16.5 ± 6.6%
CC(C)(C)c1nc2c3cc[nH]c(=O)c3c3cc(F)ccc3c2[nH]1 [Merck -5 (10 mM)],percent Bodipy-positive cells,[1],38.2 ± 13%
CC(=O)O[C@]1(C(C)=O)CC[C@H]2[C@@H]3C[C@H](C)C4=CC(=O)CC[C@]4(C)[C@H]3CC[C@@]21C [Medroxyprogesterone 17-acetate],percent Bodipy-positive cells,[1],21.7 ± 7.9%
same,percent Bodipy-positive cells,library stock concentration: 16.4 mM,10.7 ± 3.6%
CC(=O)O[C@]1(C(C)=O)CC[C@H]2[C@@H]3C[C@H](C)C4=CC(=O)CC[C@]4(C)[C@H]3CC[C@@]21C [Medroxyprogesterone acetate],percent Bodipy-positive cells,[2],8.54 ± 3.2%
same,percent Bodipy-positive cells,library stock concentration: 5.2 mM,3.71 ± 3.4%
same,percent Bodipy-positive cells,[1],13.9% and 15.9%
O=C(O)c1cc(-c2ccccc2)nc2ccccc12,percent Bodipy-positive cells,[1],36.4 ± 21%
O=C(O)c1cc(-c2ccccc2)nc2ccccc12 [Cinchophen],percent Bodipy-positive cells,[2],10.6 ± 2.7%
same,percent Bodipy-positive cells,[1],19 ± 3.2%
CCCc1c(OCC(O)COc2ccc3c(=O)cc(C(=O)O)oc3c2CCC)ccc(C(C)=O)c1O (configuration not stated),percent Bodipy-positive cells,[1],5.15 ± 1.5%
O.O.O.O.O.O.O.O.O.O.O.O.O.O.O.O.O=S(=O)([O][Al])OC[C@H]1O[C@@](COS(=O)(=O)[O][Al])(O[C@H]2O[C@H](COS(=O)(=O)[O][Al])[C@@H](OS(=O)(=O)[O][Al])[C@H](OS(=O)(=O)[O][Al])[C@H]2OS(=O)(=O)[O][Al])[C@@H](OS(=O)(=O)[O][Al])[C@@H]1OS(=O)(=O)[O][Al] [Sucralfate sodium (10% w/v in dmso)],percent Bodipy-positive cells,library stock concentration: 900 uM,20 ± 11%
CCCCCCCCCCCCCCCCOC[C@H](COP(=O)([O-])OCC[N+](C)(C)C)OC(=O)CCCCCCCC(=O)O [Azelaoyl PAF],percent Bodipy-positive cells,[5],7.54 ± 1.6%
CNc1cc(OC)c(C(=O)NC2CCN(Cc3ccccc3)C2C)cc1Cl (configuration not stated) [Nemonapride],percent Bodipy-positive cells,[1],47.5 ± 7.2%
COc1cc2c(Oc3ccc4[nH]c(C)cc4c3F)ncnc2cc1OCCCN1CCCC1 [Cediranib (AZD2171)],percent Bodipy-positive cells,[1],100%
COc1cc2c(Oc3ccc4[nH]c(C)cc4c3F)ncnc2cc1OCCCN1CCCC1 [Cediranib],percent Bodipy-positive cells,[6],16.6 ± 0.96%
same,percent Bodipy-positive cells,[3],50.2 ± 9%
same,percent Bodipy-positive cells,[1],98.51 ± 0.68%
CC(=O)N[C@@H](Cc1c[nH]c2ccccc12)C(N)=O [Acetyltryptophanamide],percent Bodipy-positive cells,[1],15.8 ± 6.1%
COc1cc(N2CCC(C(N)=O)CC2)ccc1Nc1nc(N)c(Cl)c(Nc2ccccc2S(=O)(=O)C(C)C)n1,percent Bodipy-positive cells,[6],7.16 ± 3.6%
same,percent Bodipy-positive cells,[3],8.55 ± 6.6%
same,percent Bodipy-positive cells,[4],19.8 ± 7.7%
same,percent Bodipy-positive cells,[1],69.8 ± 18%
CN(C)c1nc(N(C)C)nc(N(C)C)n1 [Altretamine],percent Bodipy-positive cells,,7.51 ± 1.7%
same,percent Bodipy-positive cells,[2],11.5 ± 8%
same,percent Bodipy-positive cells,library stock concentration: 9.5 mM,6.03% and 23.5%
COc1cc2c(cc1-c1c(C)noc1C)ncc1[nH]c(=O)n([C@H](C)c3ccccn3)c12,percent Bodipy-positive cells,[6],36.8 ± 2.1%
same,percent Bodipy-positive cells,[3],32.2 ± 3.9%
same,percent Bodipy-positive cells,[4],40.84 ± 0.1%
same,percent Bodipy-positive cells,[2],11.5 ± 3.4%
CC(NC(=O)C(O)c1cc(F)cc(F)c1)C(=O)NC1C(=O)N(C)c2ccccc2-c2ccccc21 (configuration not stated),percent Bodipy-positive cells,[2],5.78 ± 1.5%
same,percent Bodipy-positive cells,[1],4.6 ± 0.14%
COc1nccc(-c2c(-c3ccc(F)cc3)ncn2C2CCNCC2)n1,percent Bodipy-positive cells,[3],27.5 ± 18%
same,percent Bodipy-positive cells,[4],35.2 ± 6.8%
same,percent Bodipy-positive cells,[1],38.8 ± 9.2%
CC(=O)Oc1ccc2c(c1)CCC1C2CC[C@]2(C)C(=O)CCC12 (some centres not stated) [Estrone acetate],percent Bodipy-positive cells,[1],31.3 ± 7.2%
Nc1nc2c(nc(Br)n2C2OC3COP(=O)(O)O[C@@H]3C2O)c(=O)[nH]1 (some centres not stated) [8-Bromo-cGMP sodium],percent Bodipy-positive cells,[1],37.3 ± 10%
Nc1nc2n[nH]nc2c(=O)[nH]1 [Azaguanine-8],percent Bodipy-positive cells,,48.2 ± 2%
same,percent Bodipy-positive cells,[2],23.2 ± 6.7%
same,percent Bodipy-positive cells,[1],77.6 ± 4.5%
CCCCCCCC/C=C\CCCCCC(=O)OC [cis-7-Hexadecenoic Acid methyl ester],percent Bodipy-positive cells,[5],9.93 ± 1.6%
"CCCCCC(O)CCC1C(O)CC(=O)C1CCCCCCC(=O)O [13,14-dihydro-15(R)-Prostaglandin E1]",percent Bodipy-positive cells,[5],9.6 ± 1.4%
"CCCCCC(O)CCC1C(O)CC(=O)C1CCCCCCC(=O)O (configuration not stated) [13,14-dihydro Prostaglandin E1]",percent Bodipy-positive cells,[5],21.7 ± 4.5%
COc1cc(/C=C(\C#N)C(=O)Nc2nnc(C(F)(F)F)s2)ccc1OCc1ccc(C(F)(F)F)cc1C(F)(F)F,percent Bodipy-positive cells,[1],16.9 ± 0.2%
COc1ccccc1OCC(O)CN1CCN(CC(=O)Nc2c(C)cccc2C)CC1 (configuration not stated) [Ranolazine 2HCl],percent Bodipy-positive cells,[2],10.2 ± 5%
same,percent Bodipy-positive cells,[7],8 ± 2.4%
same,percent Bodipy-positive cells,[1],21.6 ± 1.1%
COc1ccccc1OCC(O)CN1CCN(CC(=O)Nc2c(C)cccc2C)CC1 (configuration not stated) [Ranolazine],percent Bodipy-positive cells,,9.49 ± 4%
same,percent Bodipy-positive cells,[2],10.2 ± 8.7%
same,percent Bodipy-positive cells,[7],13.8 ± 1.9%

# Source: the supplement of paper PMC9135407
